Measurements published in PMC7515728, “YdiV regulates Escherichia coli ferric uptake by manipulating the DNA-binding ability of Fur in a SlyD-dependent manner” (Nucleic Acids Research, 2020).
No constants are given. Whether binding was seen depends on the method and setting.

Sequences of proteins named here, by UniProt entry; tags and fusion partners are left off.
UniProt P0A9K9: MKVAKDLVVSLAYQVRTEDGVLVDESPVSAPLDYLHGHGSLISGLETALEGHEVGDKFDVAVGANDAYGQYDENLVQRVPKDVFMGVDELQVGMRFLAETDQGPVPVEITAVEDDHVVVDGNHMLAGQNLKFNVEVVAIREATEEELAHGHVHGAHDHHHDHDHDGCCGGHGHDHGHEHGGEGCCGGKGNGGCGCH

Target: SlyD in the bacterial two-hybrid plasmid pKNT25-slyD (Escherichia coli) (UniProt P0A9K9)
Assay: two-hybrid; bacterial two-hybrid by reconstitution of adenylate cyclase (T18/T25) in E. coli BTH101; LB-X-Gal plates and β-galactosidase assay (Miller method)

binding: no binding
B1: YdiV in the bacterial two-hybrid plasmid pCH363-ydiV (protein, UniProt P76204 1-237)
chain: MKIFLENLYHSDCYFLPIRDNQQVLVGVELITHFSSEDGTVRIPTSRVIAQLTEEQHWQLFSEQLELLKSCQHFFIQHKLFAWLNLTPQVATLLLERDNYAGELLKYPFIELLINENYPHLNEGKDNRGLLSLSQVYPLVLGNLGAGNSTMKAVFDGLFTRVMLDKSFIQQQITHRSFEPFIRAIQAQISPCCNCIIAGGIDTAEILAQITPFDFHALQGCLWPAVPINQITTLVQR
